Experimental data from patent publication US9327013B2, “Activity enhancer for anticancer agent” (TOKYO UNIVERSITY OF SCIENCE FOUNDATION, priority 2011, dated 2016).
Part of at least one peptide drawing is inferred or uncertain, most often the ends. Some of these results come from one statement about several compounds together. Square brackets hold non-standard residues; d marks the D form. Ends that are not written are not given here. Peptide text beside a SMILES is read from it.

Test system: U937 cells
Assay: Survival of irradiated SCID mice given U937 cells, peptide combined with AraC
Type: in vivo
Details: FIG. 4
[1] = peptide dose 1 mg into tail vein on day 7, simultaneously AraC (20 mg) or physiological saline i.p.

Question: What does the source list for “TEATITGLEPGTEYTIYVIAL [FNIII14, reference compound]”?
Answer: day on which survival ratio of the mice became 0 (peptide dose 0.5 mg into tail vein on day 7): ~50 days; survival of mice [1]: ≥ 60 days

Question: Which results are given for `CC[C@H](C)[C@H](NC(=O)[C@@H](NC(=O)[C@H](Cc1ccc(O)cc1)NC(=O)[C@@H](NC(=O)[C@@H](NC(=O)[C@H](Cc1ccc(O)cc1)NC(=O)[C@H](CCC(=O)O)NC(=O)[C@@H](NC(=O)CNC(=O)[C@@H]1CCCN1C(=O)[C@H](CCC(=O)O)NC(=O)[C@H](CC(C)C)NC(=O)CNC(=O)[C@@H](NC(=O)[C@@H](NC(=O)[C@@H](NC(=O)[C@H](C)NC(=O)[C@@H](CCC(=O)O)NC(=O)[C@@H](N)[C@@H](C)O)[C@@H](C)O)[C@@H](C)CC)[C@@H](C)O)[C@@H](C)O)[C@@H](C)O)[C@@H](C)CC)C(C)C)C(=O)N[C@@H](C)C(=O)N[C@@H](CC(C)C)C(=O)O` [D-Glu-FNIII14, T-[D-Glu]-ATITGLEPGTEYTIYVIAL] (H-T[dE]ATITGLEPGTEYTIYVIAL-OH; N-terminus and C-terminus assumed)?
Answer: survival of mice (peptide dose 0.5 mg into tail vein on day 7, simultaneously AraC (20 mg) or physiological saline i.p.): ≥ 60 days; survival of mice [1]: ≥ 60 days
